Laboratory results taken from patent EP3556362A1, “STING INHIBITORS” (ECOLE POLYTECHNIQUE FEDERALE DE LAUSANNE (EPFL), priority 2018, dated 2019).
Some entries share one result that the patent states for a list of compounds.

Protein sequences, listed by entry. Tags and fused reporters are not part of them. Lines headed by an entry give the natural chain unless they say otherwise; changes in a name come on top.
UniProt Q86WV6: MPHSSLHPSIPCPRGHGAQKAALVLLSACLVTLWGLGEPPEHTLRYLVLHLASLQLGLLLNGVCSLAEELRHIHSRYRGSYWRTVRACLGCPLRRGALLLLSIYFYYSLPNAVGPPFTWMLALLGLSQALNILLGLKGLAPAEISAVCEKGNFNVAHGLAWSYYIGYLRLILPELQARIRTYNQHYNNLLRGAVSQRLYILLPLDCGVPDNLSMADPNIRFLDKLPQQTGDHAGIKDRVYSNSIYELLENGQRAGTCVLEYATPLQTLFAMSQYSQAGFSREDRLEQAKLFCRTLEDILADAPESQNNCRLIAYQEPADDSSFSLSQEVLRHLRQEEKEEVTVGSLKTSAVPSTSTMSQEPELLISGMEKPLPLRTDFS

Target: human STING (Homo sapiens, UniProt Q86WV6)
Assay: IFN-β luciferase reporter assay in HEK293T cells (high-throughput screen and validation), STING stimulated by cGAS co-expression
Settings: hsSTING in combination with cGAS, 0.31-2.5µM, 16 h (Figure 8)

| SMILES | inhibition of STING-mediated type I IFN induction |
| --- | --- |
| CCCCc1ccc(NC(=O)Nc2c[nH]c3ccccc23)cc1 [BSF0061] | strong inhibition |
| CCCCCCc1ccc(NC(=O)Nc2c[nH]c3ccccc23)cc1 [BSF0062] | strong inhibition |
